Measured values: publication PMC7093809

The chains behind the UniProt entries cited, without tags or fusion partners. Where a name states a change or a piece, a line headed by the entry shows the natural chain unless it says otherwise.
UniProt O60674: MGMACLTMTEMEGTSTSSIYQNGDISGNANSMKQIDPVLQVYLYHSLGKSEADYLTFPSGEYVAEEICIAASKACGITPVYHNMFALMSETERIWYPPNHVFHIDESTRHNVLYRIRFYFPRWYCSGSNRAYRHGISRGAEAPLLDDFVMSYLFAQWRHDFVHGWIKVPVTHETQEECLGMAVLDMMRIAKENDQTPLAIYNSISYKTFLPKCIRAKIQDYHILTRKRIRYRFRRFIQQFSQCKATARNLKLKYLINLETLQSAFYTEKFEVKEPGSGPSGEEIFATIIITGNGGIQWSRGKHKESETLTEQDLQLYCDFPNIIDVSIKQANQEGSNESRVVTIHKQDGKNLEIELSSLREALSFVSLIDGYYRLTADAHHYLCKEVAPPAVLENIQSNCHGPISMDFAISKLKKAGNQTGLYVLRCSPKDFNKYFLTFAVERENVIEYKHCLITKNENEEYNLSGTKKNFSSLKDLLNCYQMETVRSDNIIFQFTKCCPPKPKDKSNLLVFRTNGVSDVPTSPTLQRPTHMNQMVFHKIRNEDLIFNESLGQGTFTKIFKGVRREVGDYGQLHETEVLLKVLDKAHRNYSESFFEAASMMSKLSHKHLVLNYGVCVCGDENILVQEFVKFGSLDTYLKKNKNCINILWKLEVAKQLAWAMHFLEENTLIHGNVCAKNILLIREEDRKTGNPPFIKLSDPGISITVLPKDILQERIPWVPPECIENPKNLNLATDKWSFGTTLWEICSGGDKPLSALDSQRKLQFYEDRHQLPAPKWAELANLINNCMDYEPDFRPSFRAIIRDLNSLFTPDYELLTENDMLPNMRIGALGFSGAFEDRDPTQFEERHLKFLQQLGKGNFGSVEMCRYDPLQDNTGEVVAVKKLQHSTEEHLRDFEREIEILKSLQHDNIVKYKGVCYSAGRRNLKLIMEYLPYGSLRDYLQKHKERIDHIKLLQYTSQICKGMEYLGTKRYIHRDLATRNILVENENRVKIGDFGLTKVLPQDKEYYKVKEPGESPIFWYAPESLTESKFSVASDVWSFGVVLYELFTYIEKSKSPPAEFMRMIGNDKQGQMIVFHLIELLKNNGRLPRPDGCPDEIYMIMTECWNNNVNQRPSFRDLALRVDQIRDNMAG
UniProt P00797: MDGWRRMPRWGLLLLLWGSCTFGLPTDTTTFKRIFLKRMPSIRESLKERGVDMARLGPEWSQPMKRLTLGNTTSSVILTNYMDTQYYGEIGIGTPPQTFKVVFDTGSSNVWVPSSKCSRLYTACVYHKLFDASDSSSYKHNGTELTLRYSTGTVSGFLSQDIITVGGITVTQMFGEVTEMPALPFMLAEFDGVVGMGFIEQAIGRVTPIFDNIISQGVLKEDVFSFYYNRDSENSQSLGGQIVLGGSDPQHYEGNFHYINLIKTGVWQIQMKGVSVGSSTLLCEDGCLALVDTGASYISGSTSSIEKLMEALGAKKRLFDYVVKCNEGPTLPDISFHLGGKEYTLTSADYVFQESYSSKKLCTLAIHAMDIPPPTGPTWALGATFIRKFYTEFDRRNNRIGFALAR

Key:
Janus kinase 2 (JAK2) = Janus kinase 2 (JAK2) (UniProt O60674); test: co-IP; Co-IP and Western blot of cell lysates from HOKs transfected with the indicated plasmids
[1] = target: T1, signal transducer and activator of transcription 4 (STAT4) (UniProt Q14765); test: co-IP; Co-IP assay using renin and STAT4 plasmids (Figure S5C); cells not given
T1 sequence: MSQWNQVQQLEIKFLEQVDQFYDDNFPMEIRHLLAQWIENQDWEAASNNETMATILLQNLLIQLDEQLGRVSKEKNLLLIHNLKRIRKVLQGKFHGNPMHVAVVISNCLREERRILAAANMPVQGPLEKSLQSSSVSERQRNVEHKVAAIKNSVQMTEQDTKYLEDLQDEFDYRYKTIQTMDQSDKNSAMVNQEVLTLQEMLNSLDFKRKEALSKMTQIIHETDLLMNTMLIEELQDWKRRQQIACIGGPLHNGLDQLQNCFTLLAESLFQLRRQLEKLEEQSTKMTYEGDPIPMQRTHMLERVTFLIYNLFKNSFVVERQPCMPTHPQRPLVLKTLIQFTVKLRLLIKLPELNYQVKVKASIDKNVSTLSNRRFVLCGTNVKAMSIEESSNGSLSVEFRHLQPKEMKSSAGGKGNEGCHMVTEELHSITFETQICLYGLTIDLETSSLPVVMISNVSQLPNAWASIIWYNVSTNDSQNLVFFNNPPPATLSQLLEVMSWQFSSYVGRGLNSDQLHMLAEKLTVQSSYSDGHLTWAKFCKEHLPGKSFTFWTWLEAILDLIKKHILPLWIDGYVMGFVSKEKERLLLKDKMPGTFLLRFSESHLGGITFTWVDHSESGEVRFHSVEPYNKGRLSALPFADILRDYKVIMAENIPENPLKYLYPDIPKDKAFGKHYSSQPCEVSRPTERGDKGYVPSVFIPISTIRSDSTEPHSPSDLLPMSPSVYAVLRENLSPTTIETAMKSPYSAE

Substance: renin (from UniProt P00797) (enzyme)
- binding (Janus kinase 2 (JAK2)): binds
- binding [1]: no binding

These are yes or no findings as the source states them, for the method shown. In cells and extracts the contact can be indirect. For some assays here: Binding can be weak; no strength is given.
